# The list shows a part of the results.
# By UniProt entry, the sequences of proteins in these tests, tags left out. Where a name states a change or a piece, a line headed by the entry shows the natural chain unless it says otherwise.
# UniProt O95248: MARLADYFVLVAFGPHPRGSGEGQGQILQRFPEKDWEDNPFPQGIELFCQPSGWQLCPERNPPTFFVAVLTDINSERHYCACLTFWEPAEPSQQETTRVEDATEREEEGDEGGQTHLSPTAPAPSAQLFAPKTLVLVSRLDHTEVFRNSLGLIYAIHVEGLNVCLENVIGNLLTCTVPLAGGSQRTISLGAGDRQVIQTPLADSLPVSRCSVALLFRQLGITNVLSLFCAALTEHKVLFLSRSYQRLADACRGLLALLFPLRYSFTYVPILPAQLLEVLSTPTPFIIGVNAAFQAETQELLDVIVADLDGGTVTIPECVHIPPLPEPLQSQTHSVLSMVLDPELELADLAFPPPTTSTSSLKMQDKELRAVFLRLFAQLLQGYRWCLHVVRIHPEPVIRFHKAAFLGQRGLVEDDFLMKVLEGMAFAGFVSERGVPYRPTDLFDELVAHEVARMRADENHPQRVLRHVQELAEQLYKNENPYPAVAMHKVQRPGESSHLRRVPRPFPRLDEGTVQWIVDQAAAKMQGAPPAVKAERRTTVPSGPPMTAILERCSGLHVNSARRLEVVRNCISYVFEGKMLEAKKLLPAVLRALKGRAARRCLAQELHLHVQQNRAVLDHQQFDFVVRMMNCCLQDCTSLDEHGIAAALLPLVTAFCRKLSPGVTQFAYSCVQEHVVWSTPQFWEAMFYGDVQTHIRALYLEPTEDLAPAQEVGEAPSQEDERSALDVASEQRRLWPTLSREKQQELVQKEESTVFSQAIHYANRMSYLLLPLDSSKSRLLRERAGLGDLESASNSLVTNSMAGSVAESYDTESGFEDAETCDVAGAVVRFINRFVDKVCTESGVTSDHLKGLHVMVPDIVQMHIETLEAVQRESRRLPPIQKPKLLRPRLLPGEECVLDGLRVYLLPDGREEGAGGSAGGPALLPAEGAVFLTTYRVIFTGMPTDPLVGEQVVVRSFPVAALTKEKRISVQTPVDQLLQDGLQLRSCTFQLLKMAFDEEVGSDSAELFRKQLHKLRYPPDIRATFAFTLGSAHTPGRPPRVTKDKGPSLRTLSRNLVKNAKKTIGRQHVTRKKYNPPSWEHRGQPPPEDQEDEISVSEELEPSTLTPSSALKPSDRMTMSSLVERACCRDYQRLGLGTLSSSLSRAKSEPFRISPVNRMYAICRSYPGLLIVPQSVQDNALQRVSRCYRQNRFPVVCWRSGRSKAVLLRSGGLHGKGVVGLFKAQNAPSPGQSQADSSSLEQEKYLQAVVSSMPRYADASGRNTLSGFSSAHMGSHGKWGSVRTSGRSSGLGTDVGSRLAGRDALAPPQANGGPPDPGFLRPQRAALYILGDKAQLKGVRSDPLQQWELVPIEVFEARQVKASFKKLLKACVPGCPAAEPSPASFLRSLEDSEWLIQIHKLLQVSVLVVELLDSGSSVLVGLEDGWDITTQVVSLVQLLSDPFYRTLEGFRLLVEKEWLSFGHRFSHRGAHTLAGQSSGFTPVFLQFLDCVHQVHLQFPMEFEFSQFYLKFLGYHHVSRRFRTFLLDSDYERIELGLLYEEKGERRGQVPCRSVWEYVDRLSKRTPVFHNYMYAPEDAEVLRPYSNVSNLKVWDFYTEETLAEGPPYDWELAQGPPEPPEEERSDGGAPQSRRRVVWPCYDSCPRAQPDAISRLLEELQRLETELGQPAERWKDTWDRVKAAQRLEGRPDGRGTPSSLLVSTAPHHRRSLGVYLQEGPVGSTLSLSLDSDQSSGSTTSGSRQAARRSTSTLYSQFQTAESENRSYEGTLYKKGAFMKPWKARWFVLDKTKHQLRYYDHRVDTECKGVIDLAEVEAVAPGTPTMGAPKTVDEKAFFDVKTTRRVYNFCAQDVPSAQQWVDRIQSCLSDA
# UniProt O00422: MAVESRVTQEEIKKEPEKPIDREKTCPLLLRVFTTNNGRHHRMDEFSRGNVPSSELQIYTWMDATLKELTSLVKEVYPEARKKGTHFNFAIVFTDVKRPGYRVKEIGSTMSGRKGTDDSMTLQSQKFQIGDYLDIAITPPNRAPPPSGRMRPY
# UniProt O95487: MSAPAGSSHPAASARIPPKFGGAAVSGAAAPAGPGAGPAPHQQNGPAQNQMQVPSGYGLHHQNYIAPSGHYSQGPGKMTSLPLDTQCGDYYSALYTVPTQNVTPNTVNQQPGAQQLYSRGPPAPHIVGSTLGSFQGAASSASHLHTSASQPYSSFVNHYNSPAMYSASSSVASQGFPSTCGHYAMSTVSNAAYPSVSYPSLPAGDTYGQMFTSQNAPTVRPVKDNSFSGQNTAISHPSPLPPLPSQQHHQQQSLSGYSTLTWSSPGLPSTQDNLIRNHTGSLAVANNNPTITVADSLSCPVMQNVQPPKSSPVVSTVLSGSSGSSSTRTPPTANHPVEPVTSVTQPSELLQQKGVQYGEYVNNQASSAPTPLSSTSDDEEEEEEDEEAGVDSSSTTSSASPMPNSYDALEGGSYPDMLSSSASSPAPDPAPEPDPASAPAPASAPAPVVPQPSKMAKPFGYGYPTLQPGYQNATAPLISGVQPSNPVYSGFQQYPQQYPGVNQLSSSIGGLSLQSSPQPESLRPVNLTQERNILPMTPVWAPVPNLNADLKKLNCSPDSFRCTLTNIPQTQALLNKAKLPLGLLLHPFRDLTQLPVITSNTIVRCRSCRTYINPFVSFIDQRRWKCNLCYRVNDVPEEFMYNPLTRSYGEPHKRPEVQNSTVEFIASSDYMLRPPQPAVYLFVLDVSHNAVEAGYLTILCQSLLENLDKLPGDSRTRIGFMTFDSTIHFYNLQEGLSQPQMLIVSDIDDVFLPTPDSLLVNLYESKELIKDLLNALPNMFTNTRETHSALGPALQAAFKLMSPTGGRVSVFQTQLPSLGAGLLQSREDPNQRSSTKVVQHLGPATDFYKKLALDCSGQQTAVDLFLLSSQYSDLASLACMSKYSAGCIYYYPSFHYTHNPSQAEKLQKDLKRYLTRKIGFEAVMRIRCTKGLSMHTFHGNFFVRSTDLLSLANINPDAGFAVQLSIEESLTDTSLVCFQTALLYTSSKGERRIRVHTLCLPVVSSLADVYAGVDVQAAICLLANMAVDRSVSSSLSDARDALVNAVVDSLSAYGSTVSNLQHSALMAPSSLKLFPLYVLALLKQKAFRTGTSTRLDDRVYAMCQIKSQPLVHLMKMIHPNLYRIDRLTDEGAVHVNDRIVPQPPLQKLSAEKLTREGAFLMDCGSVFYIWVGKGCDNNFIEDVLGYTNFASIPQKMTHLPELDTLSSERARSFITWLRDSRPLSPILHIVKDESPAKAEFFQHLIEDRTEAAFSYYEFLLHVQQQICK
# UniProt Q99442: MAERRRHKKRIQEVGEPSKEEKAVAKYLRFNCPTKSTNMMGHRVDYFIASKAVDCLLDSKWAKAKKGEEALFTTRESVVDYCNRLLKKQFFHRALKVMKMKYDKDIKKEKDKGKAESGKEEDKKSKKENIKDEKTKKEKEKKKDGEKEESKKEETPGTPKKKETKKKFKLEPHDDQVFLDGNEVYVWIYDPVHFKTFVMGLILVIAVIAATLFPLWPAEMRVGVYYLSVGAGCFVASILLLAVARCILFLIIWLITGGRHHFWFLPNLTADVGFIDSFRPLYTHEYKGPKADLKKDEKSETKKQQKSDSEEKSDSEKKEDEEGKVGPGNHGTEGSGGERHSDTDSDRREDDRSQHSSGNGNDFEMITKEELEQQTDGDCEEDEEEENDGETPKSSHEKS
# UniProt O95197: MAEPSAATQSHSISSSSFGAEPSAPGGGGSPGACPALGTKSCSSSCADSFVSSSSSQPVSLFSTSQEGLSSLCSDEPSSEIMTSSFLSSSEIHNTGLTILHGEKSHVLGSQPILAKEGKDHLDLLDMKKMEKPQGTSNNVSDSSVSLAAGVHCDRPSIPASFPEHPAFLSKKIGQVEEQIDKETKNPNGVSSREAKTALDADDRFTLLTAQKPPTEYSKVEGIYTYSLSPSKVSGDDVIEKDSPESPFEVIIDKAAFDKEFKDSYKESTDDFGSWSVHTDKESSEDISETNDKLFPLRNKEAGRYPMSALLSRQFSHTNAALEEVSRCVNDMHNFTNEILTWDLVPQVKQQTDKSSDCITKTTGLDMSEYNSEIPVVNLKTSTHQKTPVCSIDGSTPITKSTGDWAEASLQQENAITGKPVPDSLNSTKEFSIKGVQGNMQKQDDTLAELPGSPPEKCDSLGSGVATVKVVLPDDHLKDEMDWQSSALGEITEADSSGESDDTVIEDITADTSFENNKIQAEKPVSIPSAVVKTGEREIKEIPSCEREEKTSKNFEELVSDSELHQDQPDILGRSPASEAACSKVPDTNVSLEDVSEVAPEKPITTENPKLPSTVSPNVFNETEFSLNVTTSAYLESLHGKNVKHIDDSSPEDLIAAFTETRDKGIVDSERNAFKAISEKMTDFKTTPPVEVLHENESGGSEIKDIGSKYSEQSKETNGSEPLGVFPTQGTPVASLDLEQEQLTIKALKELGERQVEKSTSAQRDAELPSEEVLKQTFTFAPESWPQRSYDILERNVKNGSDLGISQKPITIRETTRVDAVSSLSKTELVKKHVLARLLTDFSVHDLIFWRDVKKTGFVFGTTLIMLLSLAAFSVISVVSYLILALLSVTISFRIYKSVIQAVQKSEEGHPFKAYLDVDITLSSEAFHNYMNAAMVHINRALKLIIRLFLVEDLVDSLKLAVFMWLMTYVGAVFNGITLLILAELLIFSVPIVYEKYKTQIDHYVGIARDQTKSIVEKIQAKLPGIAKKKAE
# UniProt Q96T23: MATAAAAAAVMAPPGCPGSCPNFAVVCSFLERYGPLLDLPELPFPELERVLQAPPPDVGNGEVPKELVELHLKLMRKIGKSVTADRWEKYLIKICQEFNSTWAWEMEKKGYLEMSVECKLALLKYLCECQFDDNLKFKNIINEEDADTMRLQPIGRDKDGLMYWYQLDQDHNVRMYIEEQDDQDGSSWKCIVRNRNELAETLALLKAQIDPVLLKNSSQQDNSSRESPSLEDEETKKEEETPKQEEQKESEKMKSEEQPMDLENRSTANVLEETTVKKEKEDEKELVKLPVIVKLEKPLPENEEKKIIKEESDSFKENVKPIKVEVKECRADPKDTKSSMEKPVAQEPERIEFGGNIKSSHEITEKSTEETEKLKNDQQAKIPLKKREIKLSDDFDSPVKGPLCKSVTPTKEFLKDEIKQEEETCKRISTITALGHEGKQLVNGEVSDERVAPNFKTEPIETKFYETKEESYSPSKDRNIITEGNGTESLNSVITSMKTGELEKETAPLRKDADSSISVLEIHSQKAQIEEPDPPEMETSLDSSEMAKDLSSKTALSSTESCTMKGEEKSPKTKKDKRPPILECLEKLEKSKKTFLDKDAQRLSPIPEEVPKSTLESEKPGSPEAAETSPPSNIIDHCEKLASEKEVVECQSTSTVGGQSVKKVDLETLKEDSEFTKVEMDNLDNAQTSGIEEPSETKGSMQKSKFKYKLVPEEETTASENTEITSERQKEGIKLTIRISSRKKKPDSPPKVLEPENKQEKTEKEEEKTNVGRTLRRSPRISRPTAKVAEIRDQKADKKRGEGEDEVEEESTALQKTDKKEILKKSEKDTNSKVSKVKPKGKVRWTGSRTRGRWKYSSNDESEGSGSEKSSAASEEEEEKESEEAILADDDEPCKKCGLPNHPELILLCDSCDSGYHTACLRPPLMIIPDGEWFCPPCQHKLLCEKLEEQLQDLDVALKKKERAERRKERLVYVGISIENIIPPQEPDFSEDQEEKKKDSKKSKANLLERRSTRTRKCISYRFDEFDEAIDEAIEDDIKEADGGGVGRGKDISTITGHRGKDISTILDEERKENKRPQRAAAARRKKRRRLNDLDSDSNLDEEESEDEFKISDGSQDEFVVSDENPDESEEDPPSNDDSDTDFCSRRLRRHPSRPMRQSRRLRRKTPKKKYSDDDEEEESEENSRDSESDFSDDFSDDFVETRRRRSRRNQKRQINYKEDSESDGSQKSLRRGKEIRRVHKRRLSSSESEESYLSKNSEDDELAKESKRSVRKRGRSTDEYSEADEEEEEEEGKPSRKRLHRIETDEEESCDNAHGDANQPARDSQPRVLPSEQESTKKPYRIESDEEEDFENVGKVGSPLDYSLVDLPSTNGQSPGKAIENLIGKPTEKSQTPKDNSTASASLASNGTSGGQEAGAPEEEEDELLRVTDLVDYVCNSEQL
# UniProt P06702: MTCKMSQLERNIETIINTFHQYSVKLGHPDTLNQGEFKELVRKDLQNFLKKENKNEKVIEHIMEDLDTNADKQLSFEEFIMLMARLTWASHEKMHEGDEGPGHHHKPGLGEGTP
# UniProt Q15404: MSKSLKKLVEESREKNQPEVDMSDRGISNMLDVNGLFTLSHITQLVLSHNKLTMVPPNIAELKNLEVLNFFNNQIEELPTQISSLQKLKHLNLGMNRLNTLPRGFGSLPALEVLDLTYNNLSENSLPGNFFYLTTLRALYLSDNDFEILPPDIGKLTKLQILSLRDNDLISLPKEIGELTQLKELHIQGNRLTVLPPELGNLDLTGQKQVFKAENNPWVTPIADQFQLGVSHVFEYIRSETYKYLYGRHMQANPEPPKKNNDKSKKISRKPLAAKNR
# Compound: COc1ccc(Cn2ccc3cc(C)c(C(=O)NO)cc32)cc1
# Assay: dose-dependent thermal stabilisation call (2D-TPP, DLPTP, 10% FDR) (binary (1 = stabilised)); higher = stabilised by the compound
# Conditions: system: HL-60 intact cells; concentration range 0.04-10 µM
# Experimental: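 2D thermal proteome profiling in intact HL-60 cells treated with BRD-3811 (0, 0.04, 0.29, 2, 10 uM) for 90 min at 37 C, then heated 3 min at one of 12 temperatures (42-63.9 C). Soluble protein was quantified by TMT10 MS. The value is the DLPTP call of the paper: dose-dependent thermal stabilisation over all temperatures at 10% FDR (F-test of a dose-response against a flat model); one experiment, one call per tested protein.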
row,Target,dose-dependent thermal stabilisation call
1,SBF1 (UniProt O95248),inactive: 0
2,RTTN (UniProt Q86VV8),inactive: 0
3,SAP18 (UniProt O00422),inactive: 0
4,RPS3 (UniProt P23396),inactive: 0
5,SEC24C (UniProt P53992),inactive: 0
6,SDF2 (UniProt Q99470),inactive: 0
7,SEC23B (UniProt Q15437),inactive: 0
8,RPS13 (UniProt P62277),inactive: 0
9,SEC24B (UniProt O95487),inactive: 0
10,SCAPER (UniProt Q9BY12),inactive: 0
11,SEC62 (UniProt Q99442),inactive: 0
12,RTN3 (UniProt O95197),inactive: 0
13,SCAMP1 (UniProt O15126),inactive: 0
14,S100P (UniProt P25815),inactive: 0
15,RPL3 (UniProt P39023),inactive: 0
16,RPP14 (UniProt O95059),inactive: 0
17,RSF1 (UniProt Q96T23),inactive: 0
18,SEC31A (UniProt O94979),inactive: 0

row,Target,dose-dependent thermal stabilisation call
1,RWDD4A (UniProt Q6NW29),inactive: 0
2,S100A4 (UniProt P26447),inactive: 0
3,ROD1 (UniProt O95758),inactive: 0
4,RSBN1 (UniProt Q5VWQ0),inactive: 0
5,RPS18 (UniProt P62269),inactive: 0
6,RPS8 (UniProt P62241),inactive: 0
7,S100A9 (UniProt P06702),inactive: 0
8,SCAF1 (UniProt Q9H7N4),inactive: 0
9,SDR39U1 (UniProt Q9NRG7),inactive: 0
10,RNF41 (UniProt Q9H4P4),inactive: 0
11,SEPHS1 (UniProt P49903),inactive: 0
12,RSU1 (UniProt Q15404),inactive: 0
13,SDCBP (UniProt O00560),inactive: 0
14,SDHB (UniProt P21912),inactive: 0
15,RPRD2 (UniProt Q5VT52),inactive: 0
16,SCARB1 (UniProt Q8WTV0),inactive: 0
17,RPL19 (UniProt P84098),inactive: 0

# Six entries from above in a different format:
row	Target	dose-dependent thermal stabilisation call
12	RSU1 (UniProt Q15404)	inactive: 0
13	SDCBP (UniProt O00560)	inactive: 0
14	SDHB (UniProt P21912)	inactive: 0
15	RPRD2 (UniProt Q5VT52)	inactive: 0
16	SCARB1 (UniProt Q8WTV0)	inactive: 0
17	RPL19 (UniProt P84098)	inactive: 0

# Reference: the supplement of paper PMC7666118
